Test [1] deals with Wee1 protein (Homo sapiens, UniProt P30291). The test is described as follows: Binding of compound to Wee1 protein and Tracer 178 by TR-FRET. The following applies: read-out: IC50 measured value, inhibitory activity against Wee1 kinase.
In test [2] the test system is H1299 cells. The test is described as follows: Anti-proliferative effect by Cell Titer-Glo, H1299. Type of test: cell-based. The following applies: read-out: IC50 measured value H1299, 3 days. The protocol:
(§1) Compound solutions of different concentration gradients were prepared. DMSO was dissolved to a concentration of 10 mM test compound and 10 mM reference compound AZD1775, and the compounds were serially diluted in culture medium for a total of 9 dose points, with 2 parallel replicates set at each concentration. The cell growth group without compound was used as a positive control (maximum signal control) and the medium was used as a negative control (minimum signal control), while ensuring that the final level of DMSO in each reaction well was 0.2%. […]
(§2) The 384-well plates were removed from the cell incubator and allowed to equilibrate for 1 h to room temperature. 25 ul of Cell Titer-Glo assay was added to each well, lysed on a shaker for 2 min and then read out (Luminescence) using a BMG PHERAStar after 10 min incubation. Calculate the inhibition rate from the luminescence signal: first calculate the average of the positive control (maximum signal control) and the negative control (minimum signal control).
(§3) [formula] to calculate the rate of inhibition of the cells by different concentrations of the compounds. The IC50 of the compound on cell activity inhibition was calculated by fitting a log(inhibitor) vs. response-Variable slope model to GraphPad Prism 6. […]

The chains behind the UniProt entries cited, without tags or fusion partners.
UniProt P30291, whole entry: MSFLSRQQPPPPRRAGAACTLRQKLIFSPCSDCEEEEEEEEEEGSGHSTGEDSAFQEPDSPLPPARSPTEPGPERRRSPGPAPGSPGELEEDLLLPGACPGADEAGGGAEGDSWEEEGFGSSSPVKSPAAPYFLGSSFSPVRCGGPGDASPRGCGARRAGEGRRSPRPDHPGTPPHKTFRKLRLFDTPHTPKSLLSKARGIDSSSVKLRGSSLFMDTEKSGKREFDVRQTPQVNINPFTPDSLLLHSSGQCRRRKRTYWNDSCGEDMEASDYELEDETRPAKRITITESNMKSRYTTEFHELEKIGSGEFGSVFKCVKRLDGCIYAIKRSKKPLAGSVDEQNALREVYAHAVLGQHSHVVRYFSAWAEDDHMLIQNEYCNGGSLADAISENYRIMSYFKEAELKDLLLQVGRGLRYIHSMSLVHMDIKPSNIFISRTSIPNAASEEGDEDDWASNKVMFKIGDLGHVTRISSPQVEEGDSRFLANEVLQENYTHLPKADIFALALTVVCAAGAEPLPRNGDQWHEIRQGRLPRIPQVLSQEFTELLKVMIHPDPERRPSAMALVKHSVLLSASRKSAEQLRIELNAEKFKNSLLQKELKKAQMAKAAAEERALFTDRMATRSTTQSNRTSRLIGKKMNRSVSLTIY

Test [3] relates to MIA Paca-2 cells. The test is described as follows: Anti-proliferative effect by Cell Titer-Glo, MIA Paca-2. It counts as cell-based. The following applies: read-out: IC50 measured value MIA Paca-2, 3 days. The protocol: as §1, §2, §3
On the technique in general: Cellular ATP, detected with luciferase, serves as a proxy for viable cell number.

SMILES strings stand for the structures. The match of structure and compound is tentative.

Data on one molecule can be found in patent US12649748B2, “Wee1 inhibitor and use thereof” (JIANGSU TASLY DIYI PHARMACEUTICAL CO., LTD., priority 2021, dated 2026).

The term IC50 denotes the concentration at which inhibition is half-maximal. Consider `CN1Cc2cc(Nc3ncc4cnn(-c5cccc(N=S(C)(C)=O)n5)c4n3)ccc2C(C)(C)C1`, for which the half-inhibitory concentration (IC50) in test [1] lay in the range of 1 to 10 nM; in test [2], 1000 to 5000 nM; in test [3], 100 to 1000 nM.
